PubChem BioAssay AID1259274 | Sanger Institute, 2017

Assay: 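Kinase knock-downs that cut colorectal cancer cell viability or boost drug killing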 (primary screen)
System: human RKO colorectal cancer cells
Reagents: siRNA pool against human genes
Treatment: anchor drugs BYL719 at 1 µM, cetuximab at 5 µg/ml or trametinib at 10 nM; DMSO vehicle as the no-drug arm
Read-out: 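Viability as fraction of non-targeting pool 2 control, averaged across replicates, robust z-score for single knock-down, and a combination synergy score per anchor drug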
Scale: viability z-score, siRNA alone: higher = more viable cells; low values mean essential gene; viability, siRNA alone, vehicle: higher = more viable cells; synergy score with BYL719 and synergy score with Trametinib and synergy score with Cetuximab: higher = stronger combined killing with the drug
Call rule: 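Essential when the robust viability z-score with siRNA only falls below -3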
Calls: active = essential when knocked down alone; inactive = no change alone
The deposit covers 794 reagents; below is a part drawn at random. 11 of them (1.4%) count as active. 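Calls rest on knock-down without drug only; synergy scores with anchor drugs were not used for the essential call.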 A number with no mark means an inactive call. No viability above 1 is reported: the scale is capped. The record does not give: the amount of reagent, the time to read-out.

The first 4 records, ahead of the listing:
gene knocked down | viability z-score, siRNA alone | viability, siRNA alone, vehicle (fraction of control) | synergy score with BYL719 | synergy score with Trametinib | synergy score with Cetuximab
MED12 | -2.49 | 0.685 | -0.0499 | -0.0476 | -0.0956
STK39 | -0.581 | 0.848 | -0.0987 | -0.067 | -0.0982
MAST2 | -0.599 | 0.847 | -0.102 | -0.197 | -0.124
GSK3B | 0.405 | 0.933 | -0.102 | -0.142 | -0.0673

Results, repeating the preview:
gene knocked down | viability z-score, siRNA alone | viability, siRNA alone, vehicle (fraction of control) | synergy score with BYL719 | synergy score with Trametinib | synergy score with Cetuximab
MED12 | -2.49 | 0.685 | -0.0499 | -0.0476 | -0.0956
STK39 | -0.581 | 0.848 | -0.0987 | -0.067 | -0.0982
MAST2 | -0.599 | 0.847 | -0.102 | -0.197 | -0.124
GSK3B | 0.405 | 0.933 | -0.102 | -0.142 | -0.0673
MAP3K15 | 0.745 | 0.962 | -0.0552 | -0.182 | -0.0201
NUAK1 | -0.902 | 0.821 | -0.0472 | -0.177 | -0.0152
MYLK4 | -0.963 | 0.816 | -0.239 | -0.0886 | -0.109
EFNA4 | 0.873 | 0.973 | -0.0346 | -0.108 | -0.0272
CKM | -1.52 | 0.768 | -0.102 | -0.185 | -0.132
CAMKK2 | 0.338 | 0.927 | -0.0769 | -0.0936 | 0.00593
SRPK1 | 0.944 | 0.979 | 0.0705 | -0.112 | 0.125
DGKI | 0.377 | 0.93 | -0.132 | -0.212 | -0.0697
PRKY | 0.0409 | 0.902 | -0.0845 | -0.0405 | 0.00315
GRK7 | -0.664 | 0.841 | 0.0237 | -0.0877 | -0.139
GAK | -0.78 | 0.831 | -0.00754 | -0.3 | 0.00256
ZC3H11A | -0.0308 | 0.895 | -0.0147 | 0.0386 | 0.0861
CSNK1A1 | -0.284 | 0.874 | 0.0556 | 0.00863 | 0.0399
CAMK2N1 | 0.182 | 0.914 | -0.0265 | -0.119 | 0.00183
IKBKB | -0.393 | 0.864 | 0.00385 | -0.149 | -0.0602
NPR2 | 0.739 | 0.961 | -0.0473 | -0.168 | -0.0387
FBXW7 | 0.399 | 0.932 | 0.0284 | -0.147 | 0.00894
PRPS1 | 0.577 | 0.947 | -0.0401 | -0.0653 | -0.0526
OXSR1 | 0.393 | 0.932 | -0.0175 | -0.163 | -0.0529
PFKFB3 | -0.452 | 0.859 | -0.15 | -0.0973 | -0.0693
PTK2B | -0.541 | 0.852 | 0.0331 | -0.208 | -0.0565
CEP290 | 1.19 | 1 | 0.0381 | -0.168 | 0.0365
MAP4K5 | 0.376 | 0.93 | 0.0431 | -0.186 | 0.0939
PRKD2 | -0.547 | 0.851 | -0.111 | -0.204 | -0.0577
IDH2 | 1.19 | 1 | 0.0438 | -0.0868 | 0.187
ADK | 0.235 | 0.918 | -0.117 | -0.23 | 0.0797
ERN1 | -1.44 | 0.775 | 0.0249 | -0.0813 | -0.125
NEK7 | 1.19 | 1 | -0.101 | -0.339 | 0
MAPK13 | 1.19 | 1 | 0.0219 | -0.242 | 0.0312
ALK | 0.0403 | 0.901 | -0.00413 | -0.126 | 0.0295
